Values of other authors in US20140056981A1, “METHOD FOR PRODUCING DRUG-LOADED POLYMERIC NANOPARTICLES BY POLYMERIZATION IN PRESENCE OF DRUGS” (CENTRO DE INVESTIGACION EN QUIMICA APLICADA, priority 2012, published 2014).
Converted amounts (≈) assume the structure as drawn.

Details: at 25° C.

CC(C)Cc1ccc(C(C)C(=O)O)cc1 (stereo not shown) [Ibuprofen]
water solubility: 0.37 mg/mL (≈ 1790 µM)
